# Test results reported in paper PMC10015868.
# Protein sequences, listed by entry. Tags and fused reporters are not part of them. Lines headed by an entry give the natural chain unless they say otherwise; changes in a name come on top.
# UniProt P19525: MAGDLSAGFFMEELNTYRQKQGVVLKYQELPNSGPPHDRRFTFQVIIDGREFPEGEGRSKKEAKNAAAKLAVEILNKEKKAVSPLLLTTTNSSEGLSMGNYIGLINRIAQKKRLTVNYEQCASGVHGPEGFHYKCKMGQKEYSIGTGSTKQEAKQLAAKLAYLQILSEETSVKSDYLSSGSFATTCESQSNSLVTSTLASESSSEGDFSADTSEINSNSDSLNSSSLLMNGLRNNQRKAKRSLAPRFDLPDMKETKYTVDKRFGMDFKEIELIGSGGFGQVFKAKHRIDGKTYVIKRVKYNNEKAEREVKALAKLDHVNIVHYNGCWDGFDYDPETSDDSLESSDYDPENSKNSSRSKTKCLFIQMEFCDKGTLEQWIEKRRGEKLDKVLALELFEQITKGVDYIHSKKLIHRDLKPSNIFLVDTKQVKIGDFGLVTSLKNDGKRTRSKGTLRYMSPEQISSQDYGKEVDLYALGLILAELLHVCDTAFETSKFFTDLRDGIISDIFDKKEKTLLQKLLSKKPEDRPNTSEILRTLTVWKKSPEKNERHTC
# UniProt P25963: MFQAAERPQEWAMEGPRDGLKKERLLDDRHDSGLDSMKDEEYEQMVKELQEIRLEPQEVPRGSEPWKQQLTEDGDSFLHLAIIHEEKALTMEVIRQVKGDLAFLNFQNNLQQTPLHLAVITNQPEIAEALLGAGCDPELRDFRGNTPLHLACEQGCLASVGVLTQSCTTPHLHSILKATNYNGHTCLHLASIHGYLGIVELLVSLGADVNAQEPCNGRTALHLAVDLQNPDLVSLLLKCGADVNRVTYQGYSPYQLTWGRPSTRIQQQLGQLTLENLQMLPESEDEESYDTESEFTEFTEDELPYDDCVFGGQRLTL
# UniProt Q04206: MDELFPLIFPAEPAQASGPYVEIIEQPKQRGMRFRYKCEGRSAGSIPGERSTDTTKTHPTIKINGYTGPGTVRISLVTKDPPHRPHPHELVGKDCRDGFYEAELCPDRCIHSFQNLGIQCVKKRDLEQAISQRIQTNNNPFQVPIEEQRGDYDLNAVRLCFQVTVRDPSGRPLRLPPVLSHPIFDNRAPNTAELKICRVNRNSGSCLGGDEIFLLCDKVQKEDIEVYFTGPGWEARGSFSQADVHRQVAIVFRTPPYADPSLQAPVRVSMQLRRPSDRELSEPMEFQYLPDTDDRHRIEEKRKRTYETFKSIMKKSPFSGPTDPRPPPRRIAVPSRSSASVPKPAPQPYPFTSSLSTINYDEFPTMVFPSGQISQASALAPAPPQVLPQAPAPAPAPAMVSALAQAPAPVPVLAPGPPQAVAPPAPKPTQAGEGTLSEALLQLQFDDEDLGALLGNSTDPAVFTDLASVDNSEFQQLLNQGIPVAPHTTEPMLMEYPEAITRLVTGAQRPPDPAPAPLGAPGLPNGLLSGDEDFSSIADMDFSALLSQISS
# No constants are given. Whether binding was seen depends on the method and setting. In cells and extracts the contact can be indirect. Some binding calls cover weakened binding; strength is not graded here.
# Key:
# [1] = target: PKR‐Flag expressed in HEK293T cells (UniProt P19525); experiment: co-IP; HEK293T cells transfected with tagged plasmids (in some panels with circWDR37 or forced PKR expression); lysed in coIP buffer, antibody at 4 °C overnight, beads 1 h at room temperature, washed ten times, western blot
# [2] = target: double‐stranded RNA‐activated protein kinase R (PKR), endogenous in NPC cells (human (endogenous in HONE1 and S18)) (UniProt P19525); experiment: co-IP; endogenous proteins in HONE1 and S18 cells
# GST‐PKR = GST‐PKR (UniProt P19525); experiment: pull-down; 20 µg purified GST-PKR or GST-PKR^T446DT451D on glutathione Sepharose 4B; lysate of transfected 293T cells added at 4 °C overnight; washed six times with NETN buffer (20 mM Tris-HCl pH 8.0, 100 mM NaCl, 1 mM EDTA, 0.5% NP-40); western blot; only the target purified
binding [1],binding [2],binding (GST‐PKR),Substance
binds,–,–,IκBα‐myc (NF‐κB inhibitor alpha) (from UniProt P25963 1-317)
–,binds,–,"RELA (also known as p65), endogenous in NPC cells (from UniProt Q04206 1-551)"
binds,–,binds,"p65‐HA, full length (from UniProt Q04206 1-551)"
binds,–,–,"p65‐RHD (Rel homology domain of p65), HA-tagged (from UniProt Q04206 19-306) (domain or fragment)"
